Test results from article PMC7691401 (EJNMMI Radiopharmacy and Chemistry, 2020).

Experiment: general procedure: peptide synthesis; HBTU/HOBt and DIPEA (HATU/HOBt/DIPEA in the procedure)
Conditions: conjugation step

Question: Which conjugation yield does the source give for AAZTA^5-Chx-2-Nal-Lys-Urea-Glu here?
Answer: Its conjugation yield is 12%.
